Results reported in patent publication US20230012172A1, “COMPOSITIONS AND METHODS FOR TREATMENT OF PLATINUM-BASED CHEMOTHERAPEUTIC RESISTANT TUMORS” (The George Washington University, priority 2020, published 2023).
At least one compound was matched to its structure with a doubt left.

System: JAK2
Assay: Cell-free kinase assay with JAK2 purified from treated cells, recombinant STAT3 substrate
Type: biochemical
Details: JAK2 purified from cells treated with UAMMC9
Description: Phosphorylation of STAT3 at tyrosine 705 (Y705) by JAK2 is one of the most important and well established cytoplasmic functions of JAK2. To determine whether accumulation of JAK2 in nucleus by depleting SENP1 affected JAK2 cytoplasmic activity, phosphorylated STAT3 (pSTAT3 (Y705)) levels was evaluated in SENP1 depleted IGROV1 cells.
To this end, cell-free kinase assays were performed using JAK2 purified from cells treated with siSENP1 or UAMMC9.

CC1CCC2(C(=O)NCC(=O)N(C)CCO)CCC3(C)C(=CCC4C5(C)CCC(O)C(C)(C)C5CCC43C)C2C1C (stereo not shown) [UAMMC9]
phosphorylation on recombinant substrate STAT3 proteins by purified JAK2: decreased phosphorylation
